In publication PMC12164954:
Results are given in words; binding and its absence hold for the method and conditions named. For part of these data: Binding can be weak; no strength is given. Sequences can lack the tags named with a protein. Blank lines part the entries; values can stand above or below the binder they belong to.

How the values were obtained:
Assay in all cases: two-hybrid; SnRK2s and ADA2b fused with activation domain (AD, pGADT7), CLC2 fused with binding domain (BD, pGBKT7); growth on SD-L-W-H medium containing 30 mM 3-AT
[1] = target: clathrin light chain 2 (CLC2) fused with binding domain (BD) (Arabidopsis thaliana)
[2] = target: CLC1 (Arabidopsis thaliana)
[3] = target: CLC3 (Arabidopsis thaliana)

binding [1]: no binding
B1: IDN2 (protein, UniProt Q8VZ79 1-647)
chain: MGSTVILSSDDEDSDISESEMDEYGDKMYLNLKGGKLKVRLSPQAFICPYCPNKKKTSFQYKDLLQHASGVGNSNSDKRSAKEKASHLALVKYLQQDLADSASEAEPSSKRQKNGNPIQDCDHDEKLVYPWKGIVVNIPTTKAQDGRSAGESGSKLRDEYILRGFNPTRVRPLWNYLGHSGTAIVEFNKDWNGLHNGLLFDKAYTVDGHGKKDWLKKDGPKLGLYGWIARADDYNGNNIIGENLRKTGDLKTIAELTEEEARKQELLVQNLRQLVEEKKKDMKEIEELCSVKSEELNQLMEEKEKNQQKHYRELNAIQERTMSHIQKIVDDHEKLKRLLESERKKLEIKCNELAKREVHNGTERMKLSEDLEQNASKNSSLELAAMEQQKADEEVKKLAEDQRRQKEELHEKIIRLERQRDQKQAIELEVEQLKGQLNVMKHMASDGDAEVVKEVDIIFKDLGEKEAQLADLDKFNQTLILRERRTNDELQEAHKELVNIMKEWNTNIGVKRMGELVTKPFVDAMQQKYCQQDVEDRAVEVLQLWEHYLKDSDWHPFKRVKLENEDREVEVIDDRDEKLRELKADLGDGPYNAVTKALLEINEYNPSGRYITTELWNFKADKKATLEEGVTCLLDQWEKAKRKRGMA

binding [1]: no binding
B2: SMC5 (protein, UniProt Q9LFS8 1-1053)
chain: MSERRAKRPKISRGEDDFLPGNIIEIELHNFMTFNHLVCKPGSRLNLVIGPNGSGKSSLVCAIALCLGGEPQLLGRATSVGAYVKRGEDSGYVKISLRGNTREENLTIFRKIDTRNKSEWMFNGSTVSKKDIVEIIQKFNIQVNNLTQFLPQDRVCEFAKLTPVQLLEETEKAVGDPQLPVHHRALVEKSRDLKQLERAVAKNGETLNQLKALVDEQEKDVERVRQRELFLTKVDSMKKKLPWLKYDMKKAEYMDAKKRMKEAEKKLDEAAKNLNSMKEPIEKQKKEKAETDSKCKKVKNLMDANGRNRCHLLEKEDEADARVVATYKELEELKKQEEHRQERILKATEDLVAAERELQNLPVYERPVAKLEELSSQVTELHHSINGKKNQKEDNEKLLSQKRYTLRQCVDKLKDMENANNKLLKALANSGADRIFDAYQWVQQNRHEFKREVYGPVLVEVNVPNRENACFLEGHVSFYIWKSFITQDPEDRDLLVKNLKRFDVPVLNYVGNSGNQKAPFHISDQMRSLGIHARLDQIFDAPDAVKEVLNSQFGLEDSYIGSKITDQRAEEVYKLGIKDFWTPDNHYRWSSSRYGGHSSASVDSVYQSRLLLCGVDVGELEKLRSRKEELEDSILFMEETHKSLQTEQRRLEEEAAKLHKEREEIVNVSYLEKKKRRELESRYQQRKTKLESLEQEEDMDASVAKLIDQASRANADRYTYAINLKKLLVEAVAHKWSYAEKHMASIELERKIRESEINIKQYEKTAQQLSLAVEYCKKEVEGKQQRLATAKRDAESVATITPELKKEFMEMPTTVEELEAAIQDNLSQANSILFINENILQEYEHRQSQIYTISTKLETDKRDLSICMKEIDSLKEKWLPTLRQLVGQINETFSHNFQEMAVAGEVSLDERDTDFDQYGIHIKVKFRESGQLQVLSSHHQSGGERSVSTILYLVSLQDLTNCPFRVVDEINQGMDPINERKMFQQLVRAASQPNTPQCFLLTPKLLPELEYSEACSILNIMNGPYIAEPSKVWSLGDSWGSLNRRRTEASQCS

binding [1]: no binding
B3: SOG1 (protein, UniProt Q6NQK2 1-449)
chain: MAGRSWLIDSNRIATKIMSASASSDPRQVVWKSNPSRHCPKCQHVIDNSDVVDDWPGLPRGVKFDPSDPEIIWHLLAKSGLSGLSSHPFIDEFIPTVNQDDGICYTHPKNLPGVKSDGTVSHFFHKAIKAYSTGTRKRRKIHDDDFGDVRWHKTGRTKPVVLDGVQRGCKKIMVLYGGKAVKTNWVMHQYHLGIEEDEKEGDYVVSKIFYQQPQQLVVKRGDKAEQEVSEDIFAAVTPTADPVTPKLATPEPRNAVRICSDSHIASDYVTPSDYVSAHEVSLAETSEVMCMEDEVQSIQPNHERPSSGPELEHGLENGAKEMLDDKEEQEKDRDNENQGEEDPTWFDSGSQFILNSQQLVEALSLCDDLLGSQDREENTNSGSLKDKQPCIADYAHLGPEDFKRDLEECQKIVLDPSNIELDTPPEFRLSQLEFGSQDSFLAWGTGKTD

binding [2]: no binding
binding [3]: no binding
binding [1]: binds
B4: SnRK2.3 fused with activation domain (AD) (enzyme, UniProt Q39193 1-361)
chain: MDRAPVTTGPLDMPIMHDSDRYDFVKDIGSGNFGVARLMRDKLTKELVAVKYIERGDKIDENVQREIINHRSLRHPNIVRFKEVILTPTHLAIIMEYASGGELYERICNAGRFSEDEARFFFQQLLSGVSYCHSMQICHRDLKLENTLLDGSPAPRLKICDFGYSKSSVLHSQPKSTVGTPAYIAPEVLLRQEYDGKIADVWSCGVTLYVMLVGAYPFEDPEEPRDYRKTIQRILSVKYSIPDDIRISPECCHLISRIFVADPATRISIPEIKTHSWFLKNLPADLMNESNTGSQFQEPEQPMQSLDTIMQIISEATIPAVRNRCLDDFMTDNLDLDDDMDDFDSESEIDIDSSGEIVYAL

binding [1]: no binding
B5: CDC5 (protein, UniProt P92948 1-844)
chain: MRIMIKGGVWKNTEDEILKAAVMKYGKNQWARISSLLVRKSAKQCKARWYEWLDPSIKKTEWTREEDEKLLHLAKLLPTQWRTIAPIVGRTPSQCLERYEKLLDAACTKDENYDAADDPRKLRPGEIDPNPEAKPARPDPVDMDEDEKEMLSEARARLANTRGKKAKRKAREKQLEEARRLASLQKRRELKAAGIDGRHRKRKRKGIDYNAEIPFEKRAPAGFYDTADEDRPADQVKFPTTIEELEGKRRADVEAHLRKQDVARNKIAQRQDAPAAILQANKLNDPEVVRKRSKLMLPPPQISDHELEEIAKMGYASDLLAENEELTEGSAATRALLANYSQTPRQGMTPMRTPQRTPAGKGDAIMMEAENLARLRDSQTPLLGGENPELHPSDFTGVTPRKKEIQTPNPMLTPSMTPGGAGLTPRIGLTPSRDGSSFSMTPKGTPFRDELHINEDMDMHESAKLERQRREEARRSLRSGLTGLPQPKNEYQIVAQPPPEESEEPEEKIEEDMSDRIAREKAEEEARQQALLKKRSKVLQRDLPRPPAASLAVIRNSLLSADGDKSSVVPPTPIEVADKMVREELLQLLEHDNAKYPLDDKAEKKKGAKNRTNRSASQVLAIDDFDENELQEADKMIKEEGKFLCVSMGHENKTLDDFVEAHNTCVNDLMYFPTRSAYELSSVAGNADKVAAFQEEMENVRKKMEEDEKKAEHMKAKYKTYTKGHERRAETVWTQIEATLKQAEIGGTEVECFKALKRQEEMAASFRKKNLQEEVIKQKETESKLQTRYGNMLAMVEKAEEIMVGFRAQALKKQEDVEDSHKLKEAKLATGEEEDIAIAMEASA

binding [1]: no binding
B6: RAD51 (protein, UniProt P94102 1-342)
chain: MTTMEQRRNQNAVQQQDDEETQHGPFPVEQLQAAGIASVDVKKLRDAGLCTVEGVAYTPRKDLLQIKGISDAKVDKIVEAASKLVPLGFTSASQLHAQRQEIIQITSGSRELDKVLEGGIETGSITELYGEFRSGKTQLCHTLCVTCQLPMDQGGGEGKAMYIDAEGTFRPQRLLQIADRFGLNGADVLENVAYARAYNTDHQSRLLLEAASMMIETRFALLIVDSATALYRTDFSGRGELSARQMHLAKFLRSLQKLADEFGVAVVITNQVVAQVDGSALFAGPQFKPIGGNIMAHATTTRLALRKGRAEERICKVISSPCLPEAEARFQISTEGVTDCKD

binding [1]: binds
B7: ADA2b fused with activation domain (AD) (protein, UniProt Q9ATB4 1-487)
chain: MGRSRGNFQNFEDPTQRTRKKKNAANVENFESTSLVPGAEGGGKYNCDYCQKDITGKIRIKCAVCPDFDLCIECMSVGAEITPHKCDHPYRVMGNLTFPLICPDWSADDEMLLLEGLEIYGLGNWAEVAEHVGTKSKEQCLEHYRNIYLNSPFFPLPDMSHVAGKNRKELQAMAKGRIDDKKAEQNMKEEYPFSPPKVKVEDTQKESFVDRSFGGKKPVSTSVNNSLVELSNYNQKREEFDPEYDNDAEQLLAEMEFKENDTPEEHELKLRVLRIYSKRLDERKRRKEFIIERNLLYPNPFEKDLSQEEKVQCRRLDVFMRFHSKEEHDELLRNVVSEYRMVKRLKDLKEAQVAGCRSTAEAERYLGRKRKRENEEGMNRGKESGQFGQIAGEMGSRPPVQASSSYVNDLDLIGFTESQLLSESEKRLCSEVKLVPPVYLQMQQVMSHEIFKGNVTKKSDAYSLFKIDPTKVDRVYDMLVKKGIAQL

binding [2]: no binding
binding [3]: no binding
binding [1]: binds
B8: SnRK2.2 fused with activation domain (AD) (enzyme, UniProt Q39192 1-362)
chain: MDPATNSPIMPIDLPIMHDSDRYDFVKDIGSGNFGVARLMTDRVTKELVAVKYIERGEKIDENVQREIINHRSLRHPNIVRFKEVILTPSHLAIVMEYAAGGELYERICNAGRFSEDEARFFFQQLISGVSYCHAMQICHRDLKLENTLLDGSPAPRLKICDFGYSKSSVLHSQPKSTVGTPAYIAPEILLRQEYDGKLADVWSCGVTLYVMLVGAYPFEDPQEPRDYRKTIQRILSVTYSIPEDLHLSPECRHLISRIFVADPATRITIPEITSDKWFLKNLPGDLMDENRMGSQFQEPEQPMQSLDTIMQIISEATIPTVRNRCLDDFMADNLDLDDDMDDFDSESEIDVDSSGEIVYAL
